For the test, the target named is GFP-PEBP1 (human) (UniProt P30086). Nature of the test: affinity purification with mass spectrometry; proteins associated with PEBP1 in GFP-PEBP1-overexpressing cells; 201 candidate proteins.

Sequences of proteins named here, by UniProt entry; tags and fusion partners are left off.
UniProt P30086: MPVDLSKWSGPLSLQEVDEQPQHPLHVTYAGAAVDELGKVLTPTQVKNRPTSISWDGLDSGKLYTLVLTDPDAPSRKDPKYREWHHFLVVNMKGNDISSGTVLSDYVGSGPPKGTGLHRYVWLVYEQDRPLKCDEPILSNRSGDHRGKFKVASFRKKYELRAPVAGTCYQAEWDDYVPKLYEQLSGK
UniProt P30153: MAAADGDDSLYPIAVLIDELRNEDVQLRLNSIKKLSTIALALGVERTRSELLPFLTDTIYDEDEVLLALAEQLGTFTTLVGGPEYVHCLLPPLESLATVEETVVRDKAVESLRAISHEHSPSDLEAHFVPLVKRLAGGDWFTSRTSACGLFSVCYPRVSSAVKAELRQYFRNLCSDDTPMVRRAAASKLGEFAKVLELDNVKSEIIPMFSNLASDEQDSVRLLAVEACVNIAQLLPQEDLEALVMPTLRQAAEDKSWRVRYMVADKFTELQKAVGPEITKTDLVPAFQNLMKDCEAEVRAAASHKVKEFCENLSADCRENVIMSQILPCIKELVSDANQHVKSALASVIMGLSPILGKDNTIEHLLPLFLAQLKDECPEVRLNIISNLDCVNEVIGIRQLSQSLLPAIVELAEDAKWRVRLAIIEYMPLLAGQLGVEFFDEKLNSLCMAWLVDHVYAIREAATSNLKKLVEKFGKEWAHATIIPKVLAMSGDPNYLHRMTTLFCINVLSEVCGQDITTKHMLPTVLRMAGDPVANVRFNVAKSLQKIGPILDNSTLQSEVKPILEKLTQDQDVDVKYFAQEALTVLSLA

These are yes or no findings as the source states them, for the method shown. Binding seen in cells or lysates may run through a third protein. A yes stands for co-enrichment or nearness to the bait. Other partners may have been found.

“PPP2R1A, a subunit of phosphatase PP2A (from UniProt P30153 1-589)”: the binding entry is “binds”.

(Values after publication PMC11665560.)
